Experimental data as given in PubChem BioAssay AID504467 (National Center for Advancing Translational Sciences (NCATS), 2011).
The campaign covered roughly 330,000 compounds. About 7,700 (2.3%) were called active. This list was built around the results that the source calls inconclusive (neither active nor inactive); the mix of calls is not that of the screen. Calls follow the shape of the dose curve; as a rule, active = well fitted inhibition curve with a large enough effect; inconclusive = small, poorly fitted or top-dose-only effect, or effect the other way; inactive = flat fitted curve, though single readings scatter. A potency beside an inconclusive call is a rough fit, not a confirmed value.

Experiment: qHTS screen for small molecules that inhibit ELG1-dependent DNA repair in human embryonic kidney (HEK293T) cells expressing luciferase-tagged ELG1; also: nearly all actives have a fitted effect of over 55% in size
Details: HEK293T ELG1-luciferase reporter, luminescence, 16 h, DNA damage induced by 5-fluorouridine; series mostly up to 46.1 µM
Method in brief: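 Cells (2,000 per well) received 5-fluorouridine plus test compound or DMSO and were incubated 16 hr at 37 °C, 5% CO2. Luciferase activity was read by luminescence 30 min after ONE-Glo addition; signal suppression marked inhibition of damage-induced ELG1 function.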
Potency is read from the fitted curve at half-maximal effect.

Structure (SMILES) | Potency
CN(C(=O)COC(=O)/C=C/c1cn(-c2ccccc2)nc1-c1ccc2c(c1)OCCO2)C1CCS(=O)(=O)C1 (configuration not stated) | active: 20.6 µM
Cc1ccc(CNS(=O)(=O)c2ccc3c(c2)n(C)c(=O)n3C)cc1 | active: 8.2 µM
Cn1ncc2c(N3CCN(c4ccc(Cl)c(Cl)c4)CC3)ncnc21 | inconclusive: 10.3 µM [activator, partial curve]
Cc1ccc2cc(CCNC(=O)c3cccc([N+](=O)[O-])c3)c(=O)[nH]c2c1C | active: 18.4 µM
Cc1ccc(Cl)cc1NC(=O)Nc1cccs1 | inconclusive: 23.1 µM [inhibitor, partial curve]
CCN(CC)c1ccc(C(=O)O)cc1 | inactive
COc1ccc(CNC(=O)CN(C)Cc2ccc(SC)cc2)cc1 | inactive
CC(=O)c1ccc(NC(=S)N(C)C2CCN(C)CC2)cc1 | inactive
Cc1cc(SCC(=O)c2ccccc2)n2nc(C)nc2n1 | inconclusive: 29.1 µM [activator, single point]
CCCOCC(O)CCc1n[nH]c(=S)n1-c1ccccc1 (configuration not stated) | inactive
O=C(NCC(c1ccc(F)cc1)N1CCOCC1)c1nn(-c2ccccc2)c(=O)c2ccccc12 (configuration not stated) | inconclusive: 29.1 µM [inhibitor, single point]
Cc1[nH]n(-c2ccc(F)cc2)c(=O)c1/C=N/c1sc2c(c1C#N)CCCC2 | inactive
O=C(NC1CCCC1)c1ccc(Cl)s1 | inconclusive: 25.9 µM [activator, single point]
Cc1nc(NC(=O)Nc2ccc(Cl)cc2)sc1C | inconclusive: 5.17 µM [activator, full curve]
CCOC(=O)Nc1cc2c(C)cc(=O)oc2cc1C | inconclusive: 13 µM [activator, single point]
C/C(=N\NC(=O)CCn1nnc2ccccc21)c1cccs1 | inconclusive: 20.6 µM [activator, partial curve]
COc1ccc(Cl)cc1C(=O)O/N=C(\N)c1ccc(Cl)cc1 | inconclusive: 16.4 µM [activator, single point]
COc1ccc(-c2[nH]ncc2CN2CCN(Cc3cccs3)CC2)c(F)c1 | inconclusive: 23.1 µM [inhibitor, partial curve, poor fit]
O=C(NCCCn1ccnc1)c1ccc(-c2cccc(C(F)(F)F)c2)o1 | inactive
COc1cc(C=O)ccc1OCc1cccc(Br)c1 | inconclusive: 18.4 µM [activator, partial curve]
N/C(=N\OC(=O)c1ccccc1[N+](=O)[O-])c1ccccn1 | inconclusive: 2.59 µM [activator, full curve]
CC(=O)c1c(C)[nH]c(C(=O)OCC(=O)N2CCc3ccccc3C2)c1C | inconclusive: 32.6 µM [inhibitor, partial curve, poor fit]
CC(=O)c1c(C)n(-c2ccc(Cl)cc2)c2ccc(O)cc12 | inconclusive: 7.3 µM [inhibitor, full curve, poor fit]
CC(=O)c1c(OC(=O)c2ccc(C)cc2)c2ccccc2n1C | inconclusive: 4.61 µM [inhibitor, single point]

Retrieved one by one from the list above (two):
Structure (SMILES) | Potency
Cc1cc(SCC(=O)c2ccccc2)n2nc(C)nc2n1 | inconclusive: 29.1 µM [activator, single point]
CCN(CC)c1ccc(C(=O)O)cc1 | inactive

Additional entries

Structure (SMILES) | Potency
COC1=CC(=O)[C@@]2([C@@H]1O)[C@@H](Cl)C[C@]13C(OC)=C(OC)C(=O)C[C@]21CCN3C | inconclusive: 9.2 µM [activator, partial curve, poor fit]
O=C1CS/C(=N/N=C/c2ccncc2)N1 | inactive
c1ccc2c(-c3ccncc3)c[nH]c2c1 | active: 20.6 µM
COc1ccc(N(CCC(=O)NCCc2ccccc2)S(=O)(=O)c2ccc(C)cc2C)cc1 | inconclusive: 16.4 µM [activator, single point]
COc1ccc(C2N=C(c3ccccc3)NO2)cc1OC (configuration not stated) | inconclusive: 16.4 µM [activator, single point]
CCOc1ccc(NC(=O)CN(C)C(=O)c2cc(-c3cccs3)nn2-c2ccccc2)cc1OCC | inconclusive: 25.9 µM [inhibitor, single point]
COc1cccc(-c2nnc3sc(-c4ccccn4)nn23)c1 | inactive
COc1ccc(C2=NS(=O)(=O)N(C)C(C(=O)NCc3ccco3)=C2)cc1OC | inactive
Cc1onc(-c2ccccc2Cl)c1C(=O)Oc1cccc2cccnc12 | inconclusive: 20.6 µM [inhibitor, partial curve, poor fit]
CCc1cc(=O)oc2c3c(cc(OCC(=O)NCc4ccccn4)c12)OC(C)(C)CC3 | inconclusive: 29.1 µM [inhibitor, single point]
O=c1[nH]c(-c2ccccn2)nc2ccccc12 | inconclusive: 20.6 µM [activator, partial curve]
Cc1occc1-c1nnc(SCC(=O)Nc2c(F)cccc2F)n1C | inactive
Cc1ccc(NC(=O)N2CCCCCC2)cc1 | inconclusive: 13 µM [activator, partial curve]
Cc1ccc2c(c1)cc1c(=O)n(CC(=O)N3CCCC3)nc(C)n12 | inactive
Cc1nc2ccc(NS(=O)(=O)c3ccc4c(c3)OCCO4)cc2s1 | inconclusive: 2.31 µM [inhibitor, partial curve, poor fit]
CCc1ccc2c(c1)C1(NN=C(c3cccc4ccccc34)S1)C(=O)N2 (configuration not stated) | inactive
CC(C)(C#CC(O)(c1ccccc1)c1ccccc1)N1CCCCC1 | inconclusive: 29.1 µM [inhibitor, single point]
CCN1CCN(C2=C(NS(=O)(=O)c3ccc(C)cc3)C(=O)c3ccccc3C2=O)CC1 | inactive
CC(OC(=O)/C=C/c1ccc2ccccc2n1)C(=O)N(C)c1ccccc1 (configuration not stated) | inconclusive: 35.5 µM [inhibitor, single point]
CCOC(=O)C(c1ccccc1)N1CCN(c2ccc(OC)cc2)CC1 (configuration not stated) | inconclusive: 1.03 µM [inhibitor, single point]
Cc1ccc(NC2CCCN(C(=O)CCC3=NNC(=O)CC3)C2)cc1C (configuration not stated) | inactive
CCOC(=O)c1c(C)[nH]c(C(=O)COC(=O)c2cnccn2)c1C | inactive
CCN1C(C(=O)c2ccccc2)=C(Nc2ccccc2C)c2ccccc2S1(=O)=O | inactive
